Test results reported in patent US9518974B2, “Sensor system for detecting organophosphorus residues by inducing coagulation of gold nanoparticles” (priority 2014, dated 2016).
Read-outs that look alike come from different tables or passages of the source.

Key:
[1] = Quantifying organophosphorus pesticide using HPLC
[2] = not given; remark: listed apart in the source
[3] = Quantifying organophosphorus pesticide with gold nanoparticles and EGFP; details: for Reliability: present method vs HPLC

Row | Compound | absorbance at 670 nm (compound 1 ppm in 10% methanol, 10 nM gold nanoparticles, 0.3 mM imidazole 2:1:1) | peak position of the gold nanoparticles absorption spectrum (diazinon 1 ppm + 10 nM gold nanoparticles 2:1, no imidazole) | new peak in absorption spectrum (pesticide 1 ppm, 0.3 mM imidazole, 10 nM gold nanoparticles 2:1:1) | HPLC mean ± SD ([1]; Table 1, sample 1, added 0.080 ppm) | HPLC mean ± SD ([1]; Table 1, sample 2, added 0.170 ppm) | HPLC mean ± SD ([1]; Table 1, sample 3, added 0.300 ppm) | HPLC mean ± SD ([1]; Table 2, sample 1, added 0.085 ppm) | HPLC mean ± SD ([1]; Table 2, sample 2, added 0.170 ppm) | HPLC mean ± SD ([1]; Table 2, sample 3, added 0.340 ppm) | peak position of the gold nanoparticles absorption spectrum ([2]; diazinon 1 ppm + 10 nM gold nanoparticles 2:1, no EGFP) | new peak in absorption spectrum ([2]; pesticide 1 ppm, 5 μg/mL EGFP, 10 nM gold nanoparticles 2:1:1) | pH of greatest difference in absorbance at 670 nm ([2]; presence vs absence of pesticide, pH 1.4 to 12.4, EGFP) | Reliability ([3]; sample 1, added 0.085 ppm) | Reliability ([3]; sample 2, added 0.170 ppm) | Reliability ([3]; sample 3, added 0.340 ppm) | the present method mean ± SD ([3]; sample 1, added 0.085 ppm) | the present method mean ± SD ([3]; sample 2, added 0.170 ppm) | the present method mean ± SD ([3]; sample 3, added 0.340 ppm) | shift of the peak of gold nanoparticle absorption spectrum (0.3 mM imidazole + 10 nM gold nanoparticles 1:1, no pesticide)
1 | CCOP(=S)(OCC)Oc1cc(C)nc(C(C)C)n1 [diazinon] | ≥ 0.41 | 520 nm | 670 nm | 0.082 ± 0.002 ppm | 0.149 ± 0.004 ppm | 0.263 ± 0.064 ppm | 0.082 ± 0.002 ppm | 0.149 ± 0.002 ppm | 0.263 ± 0.014 ppm | 520 nm | 670 nm | 8.4 | 151.6% | 104.7% | 94.3% | 0.124 ± 0.015 ppm | 0.156 ± 0.010 ppm | 0.248 ± 0.012 ppm | 
2 | c1c[nH]cn1 [imidazole] |  |  |  |  |  |  |  |  |  |  |  |  |  |  |  |  |  |  | the shift of the peak was not observed
